The other results are listed elsewhere or left out. Many values rest on one well or one pass, so single values are uncertain.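 The apoptosis fraction was the count of cleaved-PARP antibody-stained nuclei relative to all DNA-stained nuclei, imaged in 1,536-well plates. Screening doses were set so most cells survived, and baseline and induced cleaved-PARP levels vary greatly across cell lines.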

In the first test the test system is COLO829. The test can be described thus: cleaved PARP positive nuclei fraction relative to DMSO control; melanoma cells; higher = more apoptosis. To be noted: library dose: low library concentration; 72 h.
In the case of `C[C@]1(O)C[C@@H](c2nc(-c3ccc4ccc(-c5ccccc5)nc4c3)c3c(N)nccn32)C1` + O=C(O)C(=O)Nc1sc2c(c1C(=O)O)CCNC2 [TCS401] (first compound 0.4 µM, partner dose 1.66667 µM), the “cleaved PARP positive nuclei fraction” value amounted to 104%.

Turning to `CCN(CC)CCNC(=O)c1c(C)[nH]c(/C=C2\C(=O)Nc3ccc(F)cc32)c1C` [sunitinib] + c1cc(-c2cnn3cc(-c4ccc(OCCN5CCCCC5)cc4)cnc23)ccn1 [Dorsomorphin] (first compound 0.4 µM, partner dose 0.4 µM), the “cleaved PARP positive nuclei fraction” value was 95.2%.

As to `CC1(C)CCC(c2ccc(Cl)cc2)=C(CN2CCN(c3ccc(C(=O)NS(=O)(=O)c4ccc(N[C@H](CCN5CCOCC5)CSc5ccccc5)c(S(=O)(=O)C(F)(F)F)c4)cc3)CC2)C1` + COc1cc(N2CCC(N3CCN(C)CC3)CC2)ccc1Nc1ncc(Cl)c(Nc2ccccc2S(=O)(=O)C(C)C)n1 [NVP-TAE684] (first compound 0.4 µM, partner dose 0.08 µM), the “cleaved PARP positive nuclei fraction” value came to 128%.

In the case of `Cn1sc(=O)n(Cc2ccccc2)c1=O` + CCN(CC)CCCCNc1ncc2cc(-c3cc(OC)cc(OC)c3)c(NC(=O)NC(C)(C)C)nc2n1 [PD173074] (first compound 0.4 µM, partner dose 0.1 µM), the “cleaved PARP positive nuclei fraction” value was 74.7%.

For `CCN(CC)CCNC(=O)c1c(C)[nH]c(/C=C2\C(=O)Nc3ccc(F)cc32)c1C` [sunitinib] + CCCCCCCCCCCC1=C(O)C(=O)C=C(O)C1=O [Embelin] (first compound 0.4 µM, partner dose 1.2 µM), the “cleaved PARP positive nuclei fraction” value is 38.8%.

`CN(c1ncccc1CNc1nc(Nc2ccc3c(c2)CC(=O)N3)ncc1C(F)(F)F)S(C)(=O)=O` + COc1ccc(-c2ccc3c(N4CCOCC4)nc(N4C[C@@H](C)O[C@@H](C)C4)nc3n2)cc1CO [KU0063794] (first compound 0.08 µM, partner dose 0.02 µM): the “cleaved PARP positive nuclei fraction” value turned out to be 223%.

Turning to `CCN(CC)CCNC(=O)c1c(C)[nH]c(/C=C2\C(=O)Nc3ccc(F)cc32)c1C` [sunitinib] + CCN(CC)CCCCNc1ncc2cc(-c3cc(OC)cc(OC)c3)c(NC(=O)NC(C)(C)C)nc2n1 [PD173074] (first compound 0.4 µM, partner dose 0.1 µM), the “cleaved PARP positive nuclei fraction” value came out at 37.5%.

Consider `Cn1cnc2c(F)c(Nc3ccc(Br)cc3Cl)c(C(=O)NOCCO)cc21` [selumetinib] + O=C(Nc1ccccc1)c1cc([N+](=O)[O-])ccc1Cl [GW9662] (first compound 0.015 µM, partner dose 2 µM), for which the “cleaved PARP positive nuclei fraction” value is 87.4%.

For `C[C@@H](N)c1ccc(C(=O)Nc2ccnc3[nH]ccc23)cc1` + COc1ccc2c(c1)CCC1C2CCC2(C)C(NCCCCCCN3C(=O)C=CC3=O)CCC12 [U73122] (first compound 0.4 µM, partner dose 0.4 µM), the “cleaved PARP positive nuclei fraction” value was 82.2%.

As for `CC(=O)O[C@@]12CO[C@@H]1C[C@H](O)[C@@]1(C)C(=O)[C@H](O)C3=C(C)[C@@H](OC(=O)[C@H](O)[C@@H](NC(=O)OC(C)(C)C)c4ccccc4)C[C@@](O)([C@@H](OC(=O)c4ccccc4)[C@H]21)C3(C)C` [Docetaxel] + COc1ccc(-c2ccc3c(N4CCOCC4)nc(N4C[C@@H](C)O[C@@H](C)C4)nc3n2)cc1CO [KU0063794] (first compound 0.0001 µM, partner dose 0.02 µM), the “cleaved PARP positive nuclei fraction” value amounted to 225%.

Turning to `CS(=O)(=O)c1ccc(C(=O)Nc2ccc(Cl)c(-c3ccccn3)c2)c(Cl)c1` [vismodegib] + COc1cc(N2CCC(N3CCN(C)CC3)CC2)ccc1Nc1ncc(Cl)c(Nc2ccccc2S(=O)(=O)C(C)C)n1 [NVP-TAE684] (first compound 1 µM, partner dose 0.08 µM), the “cleaved PARP positive nuclei fraction” value amounted to 181%.

For the compound `NC(=O)c1ccc(N(C(N)=O)c2c(F)cccc2F)nc1-c1ccc(F)cc1F` + O=C(O)C(=O)Nc1sc2c(c1C(=O)O)CCNC2 [TCS401] (first compound 0.4 µM, partner dose 1.66667 µM), the “cleaved PARP positive nuclei fraction” value is 55.3%.

On to `CCN(CC)CCNC(=O)c1c(C)[nH]c(/C=C2\C(=O)Nc3ccc(F)cc32)c1C` [sunitinib] + CC(C)CCN1c2nc(Nc3cc(F)c(O)c(F)c3)ncc2N(C)C(=O)C1C [BID1870] (first compound 0.4 µM, partner dose 0.2 µM), for which the “cleaved PARP positive nuclei fraction” value was 72%.

The test system of another test is G361. The test is described as above. Particulars: library dose: low library concentration; 72 h.
Regarding `NC1(c2ccc(-c3nc4ccn5c(=O)[nH]nc5c4cc3-c3ccccc3)cc2)CCC1` + Cc1cc([N+](=O)[O-])ccc1NS(=O)(=O)c1cc(Cl)ccc1Cl [FH535] (first compound 0.4 µM, partner dose 1 µM), the “cleaved PARP positive nuclei fraction” value was found to be 84.2%.

For `NC1(c2ccc(-c3nc4ccn5c(=O)[nH]nc5c4cc3-c3ccccc3)cc2)CCC1` + O=S(=O)(c1ccccc1)N(CC(F)(F)F)c1ccc(C(O)(C(F)(F)F)C(F)(F)F)cc1 [T0901317] (first compound 0.4 µM, partner dose 1.4 µM), the “cleaved PARP positive nuclei fraction” value came to 151%.

For `CS(=O)(=O)c1ccc(C(=O)Nc2ccc(Cl)c(-c3ccccn3)c2)c(Cl)c1` [vismodegib] + Oc1cc(-c2nc(-c3ccccc3)[nH]c2-c2ccncc2)ccc1Cl [L779450] (first compound 1 µM, partner dose 0.2 µM), the “cleaved PARP positive nuclei fraction” value was found to be 94.6%.

Consider `C[C@]1(O)C[C@@H](c2nc(-c3ccc4ccc(-c5ccccc5)nc4c3)c3c(N)nccn32)C1` + CC(C)CCN1c2nc(Nc3cc(F)c(O)c(F)c3)ncc2N(C)C(=O)C1C [BID1870] (first compound 0.4 µM, partner dose 0.2 µM), for which the “cleaved PARP positive nuclei fraction” value amounted to 102%.

As for `Cn1cnc2c(F)c(Nc3ccc(Br)cc3Cl)c(C(=O)NOCCO)cc21` [selumetinib] + CC(C)CCN1c2nc(Nc3cc(F)c(O)c(F)c3)ncc2N(C)C(=O)C1C [BID1870] (first compound 0.015 µM, partner dose 0.2 µM), the “cleaved PARP positive nuclei fraction” value came out at 129%.

For `C[C@]1(O)C[C@@H](c2nc(-c3ccc4ccc(-c5ccccc5)nc4c3)c3c(N)nccn32)C1` + CCN(CC)CCCCNc1ncc2cc(-c3cc(OC)cc(OC)c3)c(NC(=O)NC(C)(C)C)nc2n1 [PD173074] (first compound 0.4 µM, partner dose 0.1 µM), the “cleaved PARP positive nuclei fraction” value came to 62.2%.

Regarding `CCCCCCCCc1ccc(CCC(N)(CO)CO)cc1` [fingolimod] + Cn1cc(/C=C2\C(=O)Nc3cccnc32)c2ccccc21 [GW441756] (first compound 2 µM, partner dose 0.4 µM), the “cleaved PARP positive nuclei fraction” value worked out at 157%.

`CS(=O)(=O)c1ccc(C(=O)Nc2ccc(Cl)c(-c3ccccn3)c2)c(Cl)c1` [vismodegib] + COc1ccc(COc2ccc(Cc3cnc(N)nc3N)cc2OC)cc1 [GW2580] (first compound 1 µM, partner dose 1 µM): the “cleaved PARP positive nuclei fraction” value is 97.1%.

In the case of `CC(=O)O[C@@]12CO[C@@H]1C[C@H](O)[C@@]1(C)C(=O)[C@H](O)C3=C(C)[C@@H](OC(=O)[C@H](O)[C@@H](NC(=O)OC(C)(C)C)c4ccccc4)C[C@@](O)([C@@H](OC(=O)c4ccccc4)[C@H]21)C3(C)C` [Docetaxel] + c1cc(-c2cnn3cc(-c4ccc(OCCN5CCCCC5)cc4)cnc23)ccn1 [Dorsomorphin] (first compound 0.0001 µM, partner dose 0.4 µM), the “cleaved PARP positive nuclei fraction” value was 624%.

For `CS(=O)(=O)c1ccc(C(=O)Nc2ccc(Cl)c(-c3ccccn3)c2)c(Cl)c1` [vismodegib] + O=C(Nc1ccccc1)c1cc([N+](=O)[O-])ccc1Cl [GW9662] (first compound 1 µM, partner dose 2 µM), the “cleaved PARP positive nuclei fraction” value amounted to 98.1%.

On to `NC(=O)c1ccc(N(C(N)=O)c2c(F)cccc2F)nc1-c1ccc(F)cc1F` + COc1ccc(-c2ccc3c(N4CCOCC4)nc(N4C[C@@H](C)O[C@@H](C)C4)nc3n2)cc1CO [KU0063794] (first compound 0.4 µM, partner dose 0.02 µM), for which the “cleaved PARP positive nuclei fraction” value stood at 84.5%.

Regarding `CN(c1ncccc1CNc1nc(Nc2ccc3c(c2)CC(=O)N3)ncc1C(F)(F)F)S(C)(=O)=O` + Oc1nc(-c2ccc(C(F)(F)F)cc2)nc2c1CSCC2 [XAV939] (first compound 0.08 µM, partner dose 2 µM), the “cleaved PARP positive nuclei fraction” value was 89.5%.

Consider `CS(=O)(=O)c1ccc(C(=O)Nc2ccc(Cl)c(-c3ccccn3)c2)c(Cl)c1` [vismodegib] + COC(=O)c1sccc1S(=O)(=O)Nc1ccc(Nc2ccccc2)cc1OC [GSK0660] (first compound 1 µM, partner dose 1 µM), for which the “cleaved PARP positive nuclei fraction” value turned out to be 41.1%.

Take `Cn1sc(=O)n(Cc2ccccc2)c1=O` + O=C(O)C(=O)Nc1sc2c(c1C(=O)O)CCNC2 [TCS401] (first compound 0.4 µM, partner dose 1.66667 µM): the “cleaved PARP positive nuclei fraction” value amounted to 101%.

With `Cn1cnc2c(F)c(Nc3ccc(Br)cc3Cl)c(C(=O)NOCCO)cc21` [selumetinib] + N#Cc1c(O)c2c(-c3ccc(-c4ccccc4O)cc3)csc2[nH]c1=O [A769662] (first compound 0.015 µM, partner dose 2 µM), the “cleaved PARP positive nuclei fraction” value stood at 201%.

As to `CCN(CC)CCNC(=O)c1c(C)[nH]c(/C=C2\C(=O)Nc3ccc(F)cc32)c1C` [sunitinib] + N#Cc1c(O)c2c(-c3ccc(-c4ccccc4O)cc3)csc2[nH]c1=O [A769662] (first compound 0.4 µM, partner dose 2 µM), the “cleaved PARP positive nuclei fraction” value was 83.1%.

`CS(=O)(=O)c1ccc(C(=O)Nc2ccc(Cl)c(-c3ccccn3)c2)c(Cl)c1` [vismodegib] + Cn1cc(/C=C2\C(=O)Nc3cccnc32)c2ccccc21 [GW441756] (first compound 1 µM, partner dose 0.4 µM): the “cleaved PARP positive nuclei fraction” value worked out at 110%.
